Measurements: publication PMC6337749
These are yes or no findings as the source states them, for the method shown. Binding seen in cells or lysates may run through a third protein. These calls come from enrichment with a bait or labelling near it, and not all partners need be listed.

Chains of the proteins cited; added tags and fusions are not shown.
UniProt O60673: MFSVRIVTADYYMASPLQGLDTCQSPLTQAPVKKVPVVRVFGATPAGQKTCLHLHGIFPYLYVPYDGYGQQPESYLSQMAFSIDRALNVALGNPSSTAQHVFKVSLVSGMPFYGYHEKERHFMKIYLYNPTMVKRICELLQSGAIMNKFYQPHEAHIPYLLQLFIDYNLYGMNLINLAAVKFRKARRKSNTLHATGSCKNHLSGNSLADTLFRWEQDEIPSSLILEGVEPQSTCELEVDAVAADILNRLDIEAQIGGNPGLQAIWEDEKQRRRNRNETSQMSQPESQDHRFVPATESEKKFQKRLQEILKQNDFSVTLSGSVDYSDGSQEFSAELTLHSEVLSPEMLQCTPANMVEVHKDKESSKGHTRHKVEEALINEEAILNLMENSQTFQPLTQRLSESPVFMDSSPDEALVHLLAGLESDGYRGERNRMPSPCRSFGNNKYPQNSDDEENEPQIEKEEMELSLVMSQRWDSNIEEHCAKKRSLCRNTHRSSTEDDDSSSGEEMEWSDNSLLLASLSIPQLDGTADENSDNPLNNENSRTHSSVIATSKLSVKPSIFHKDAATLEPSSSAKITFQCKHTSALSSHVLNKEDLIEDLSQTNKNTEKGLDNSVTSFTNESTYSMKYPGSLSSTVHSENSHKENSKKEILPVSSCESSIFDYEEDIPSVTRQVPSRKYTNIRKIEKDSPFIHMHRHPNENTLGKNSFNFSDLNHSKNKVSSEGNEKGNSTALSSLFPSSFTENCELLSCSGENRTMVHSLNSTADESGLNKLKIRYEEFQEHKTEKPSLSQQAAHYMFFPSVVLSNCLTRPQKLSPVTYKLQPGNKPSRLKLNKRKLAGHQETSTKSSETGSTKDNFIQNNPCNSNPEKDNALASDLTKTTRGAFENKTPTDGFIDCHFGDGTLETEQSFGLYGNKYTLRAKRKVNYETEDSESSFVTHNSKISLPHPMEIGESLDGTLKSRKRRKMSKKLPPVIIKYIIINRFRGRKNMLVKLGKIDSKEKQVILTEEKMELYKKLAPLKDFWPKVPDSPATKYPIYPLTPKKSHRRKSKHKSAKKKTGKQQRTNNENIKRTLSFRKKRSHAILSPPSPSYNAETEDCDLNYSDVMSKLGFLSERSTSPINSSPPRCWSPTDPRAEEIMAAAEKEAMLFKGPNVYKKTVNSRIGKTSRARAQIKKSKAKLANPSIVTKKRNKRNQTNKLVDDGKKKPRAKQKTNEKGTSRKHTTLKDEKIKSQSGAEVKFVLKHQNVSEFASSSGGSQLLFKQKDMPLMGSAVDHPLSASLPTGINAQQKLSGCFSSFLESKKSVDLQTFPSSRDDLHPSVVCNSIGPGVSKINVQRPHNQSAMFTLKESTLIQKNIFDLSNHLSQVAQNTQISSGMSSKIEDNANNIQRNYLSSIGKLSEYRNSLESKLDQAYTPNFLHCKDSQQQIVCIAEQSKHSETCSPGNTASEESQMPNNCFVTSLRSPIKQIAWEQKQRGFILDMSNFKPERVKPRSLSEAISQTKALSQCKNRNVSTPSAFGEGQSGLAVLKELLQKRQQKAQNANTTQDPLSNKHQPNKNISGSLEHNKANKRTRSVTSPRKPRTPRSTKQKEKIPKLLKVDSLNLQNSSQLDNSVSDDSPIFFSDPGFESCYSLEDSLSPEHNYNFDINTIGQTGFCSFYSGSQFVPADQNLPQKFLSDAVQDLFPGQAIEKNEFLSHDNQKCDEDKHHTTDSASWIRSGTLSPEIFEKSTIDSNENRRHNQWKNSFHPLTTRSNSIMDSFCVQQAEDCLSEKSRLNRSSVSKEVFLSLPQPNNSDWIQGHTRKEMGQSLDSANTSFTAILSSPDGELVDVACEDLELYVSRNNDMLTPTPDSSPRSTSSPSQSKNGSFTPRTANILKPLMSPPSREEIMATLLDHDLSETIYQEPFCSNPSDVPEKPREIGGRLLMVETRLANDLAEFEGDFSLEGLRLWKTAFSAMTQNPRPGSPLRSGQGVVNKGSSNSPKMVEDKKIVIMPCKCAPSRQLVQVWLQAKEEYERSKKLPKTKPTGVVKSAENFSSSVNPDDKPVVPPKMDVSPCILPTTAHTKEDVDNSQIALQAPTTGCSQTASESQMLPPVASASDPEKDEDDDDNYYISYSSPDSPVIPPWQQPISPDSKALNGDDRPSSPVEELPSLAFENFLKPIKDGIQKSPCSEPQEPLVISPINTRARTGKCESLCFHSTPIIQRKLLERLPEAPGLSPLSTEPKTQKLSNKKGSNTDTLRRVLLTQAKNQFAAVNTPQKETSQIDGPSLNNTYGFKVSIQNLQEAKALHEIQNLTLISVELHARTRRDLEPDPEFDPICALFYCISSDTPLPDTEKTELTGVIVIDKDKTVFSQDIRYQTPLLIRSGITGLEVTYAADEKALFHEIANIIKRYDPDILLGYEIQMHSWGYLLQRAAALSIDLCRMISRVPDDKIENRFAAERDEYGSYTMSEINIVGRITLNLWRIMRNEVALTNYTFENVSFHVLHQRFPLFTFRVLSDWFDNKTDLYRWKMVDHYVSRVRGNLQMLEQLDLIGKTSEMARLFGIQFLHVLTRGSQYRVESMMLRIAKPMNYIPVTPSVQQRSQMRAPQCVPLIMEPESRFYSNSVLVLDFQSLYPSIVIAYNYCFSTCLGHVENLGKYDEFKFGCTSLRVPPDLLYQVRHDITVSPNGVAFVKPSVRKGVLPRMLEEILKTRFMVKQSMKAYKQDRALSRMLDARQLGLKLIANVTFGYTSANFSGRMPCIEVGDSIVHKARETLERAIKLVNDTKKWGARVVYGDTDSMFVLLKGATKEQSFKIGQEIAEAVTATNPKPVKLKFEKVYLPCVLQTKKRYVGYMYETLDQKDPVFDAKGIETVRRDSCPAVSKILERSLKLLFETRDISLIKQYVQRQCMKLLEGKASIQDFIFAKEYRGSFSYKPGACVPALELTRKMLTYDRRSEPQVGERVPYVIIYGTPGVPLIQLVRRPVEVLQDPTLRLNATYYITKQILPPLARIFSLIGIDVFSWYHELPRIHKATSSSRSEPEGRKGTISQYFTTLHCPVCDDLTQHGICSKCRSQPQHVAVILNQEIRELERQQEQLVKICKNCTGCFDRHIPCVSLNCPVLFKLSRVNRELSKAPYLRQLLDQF

Molecular target: full-length REV3L tagged with YFP (human) (UniProt O60673)
Experiment: affinity purification with mass spectrometry; same anti-GFP immunoprecipitates of REV3L-YFP or YFP only from weakly cross-linked HEK293T cells; in-gel tryptic digestion, Orbitrap Elite; three biological replicas compared to the YFP control

binding: binds
B1: POLD3 (protein, UniProt Q15054 1-466)
chain: MADQLYLENIDEFVTDQNKIVTYKWLSYTLGVHVNQAKQMLYDYVERKRKENSGAQLHVTYLVSGSLIQNGHSCHKVAVVREDKLEAVKSKLAVTASIHVYSIQKAMLKDSGPLFNTDYDILKSNLQNCSKFSAIQCAAAVPRAPAESSSSSKKFEQSHLHMSSETQANNELTTNGHGPPASKQVSQQPKGIMGMFASKAAAKTQETNKETKTEAKEVTNASAAGNKAPGKGNMMSNFFGKAAMNKFKVNLDSEQAVKEEKIVEQPTVSVTEPKLATPAGLKKSSKKAEPVKVLQKEKKRGKRVALSDDETKETENMRKKRRRIKLPESDSSEDEVFPDSPGAYEAESPSPPPPPSPPLEPVPKTEPEPPSVKSSSGENKRKRKRVLKSKTYLDGEGCIVTEKVYESESCTDSEEELNMKTSSVHRPPAMTVKKEPREERKGPKKGTAALGKANRQVSITGFFQRK
